For this experiment, the system named is L1210 leukemia ip in BDF1 mice, survival T/C. The experiment is described as follows: NCI In Vivo Anticancer Drug Screen. Data for tumor model L1210 Leukemia (intraperitoneal) in B6D2F1 (BDF1) mice. The following applies: T/C endpoint: mean survival time, higher T/C = longer survival.
The mark [1] stands for this setting: dose: 150.0 mg/kg/injection, schedule: Q01DX001 (ip), vehicle: saline.
Where [2] appears, read: dose: 300.0 mg/kg/injection, schedule: Q01DX001 (ip), vehicle: saline.
The mark [3] stands for this setting: dose: 100.0 mg/kg/injection, schedule: Q01DX009 (ip), vehicle: saline with Tween-80.
Where [4] appears, read: dose: 100.0 mg/kg/injection, schedule: Q04DX003 (ip), vehicle: saline with Tween-80.
[5] abbreviates: dose: 200.0 mg/kg/injection, schedule: Q01DX009 (ip), vehicle: saline with Tween-80.
[6] abbreviates: dose: 200.0 mg/kg/injection, schedule: Q04DX003 (ip), vehicle: saline with Tween-80.
The mark [7] stands for this setting: dose: 400.0 mg/kg/injection, schedule: Q01DX009 (ip), vehicle: saline with Tween-80.
[8] abbreviates: dose: 400.0 mg/kg/injection, schedule: Q04DX003 (ip), vehicle: saline with Tween-80.
The mark [9] stands for this setting: dose: 200.0 mg/kg/injection, schedule: Q04DX003 (ip), vehicle: saline.
[10] abbreviates: dose: 100.0 mg/kg/injection, schedule: Q04DX003 (ip), vehicle: Klucel (hydroxypropylcellulose) (HPC).
Where [11] appears, read: dose: 200.0 mg/kg/injection, schedule: Q04DX003 (ip), vehicle: Klucel (hydroxypropylcellulose) (HPC).
[12] abbreviates: dose: 400.0 mg/kg/injection, schedule: Q04DX003 (ip), vehicle: Klucel (hydroxypropylcellulose) (HPC).
Setting [13] is: dose: 400.0 mg/kg/injection, schedule: Q04DX003 (ip), vehicle: saline.

The list shows only some results of the screen, not a fair sample: it is rich in T/C values a quarter to a half above the control, in often repeated tests (any T/C) and in doses without a T/C. Other doses and runs of a compound stand elsewhere. T/C is the treated group as % of the vehicle group. Some doses have a count of surviving animals in place of a T/C: the source files T/C as zero there, which appears to mark a toxic dose or a test without result, not a measured value. Some doses without a T/C left all or most animals alive at the check, yet need not have been tolerated: the source hardly ever lists a survival T/C far under the control, and the zero likely stands for such cases as well. Survivors were counted at the toxicity check, usually on the fifth day, unless a day is given; later deaths do not show. Schedules are NCI's codes, read here as Q, the interval in days (D) or hours (H), X, the number of doses. Some schedules carry Z or #; the key to these is not given. For survival time, the PubChem record calls one and a half times the control and up active, and a quarter to a half above the control has no call in these data; cut-offs in other NCI protocols can differ. Some entries hold several experiments; the values are given in rising order. Marks such as (2×) stand for listed records that agree.

As for `CCCCCCCCCCCCCCCC[n+]1ccc(C#N)cc1`, the survivor count is, setting by setting: (dose: 20.0 mg/kg/injection, schedule: Q01DX001 (ip), vehicle: saline) 6 of 6; (dose: 40.0 mg/kg/injection, schedule: Q01DX001 (ip), vehicle: saline) 4 of 6; (dose: 75.0 mg/kg/injection, schedule: Q01DX001 (ip), vehicle: saline) 1 of 6; under setting [1], 0 of 6; under setting [2], 0 of 6.

As to `CCCCCCCCCCCCCCCC1CCCC(C)N1` (stereo not drawn), for the setting “dose: 50.0 mg/kg/injection, schedule: Q04DX002 (ip), vehicle: saline with Tween-80”, the survivor count is listed as 1 of 3.

`N#Cc1c(CBr)ccc2ccccc12`: the survivor count is given as 3 of 6 under setting [1] and 1 of 6 under setting [2].

Take `CCOC(=O)c1ccc(NC(=O)Nc2cc(OC)c(Cl)cc2OC)cc1`: the T/C by setting is: under setting [3], 88 (2×), 91, 92 % of control; under setting [5], 86, 87, 92 % of control; under setting [7], 86, 87, 90 % of control. Further, the survivor count is 6 of 6 under setting [4]; 6 of 6 under setting [5]; 6 of 6 under setting [6]; 3 of 3 under setting [7]; 6 of 6 under setting [8].

As to `CN(C)CCc1ccc2cc3ccc(CCN(C)C)cc3nc2c1`, the survivor count was 1 of 3 (dose: 100.0 mg/kg/injection, schedule: Q04DX002 (ip), vehicle: saline with Tween-80); 1 of 3 (dose: 200.0 mg/kg/injection, schedule: Q04DX002 (ip), vehicle: saline with Tween-80); 1 of 3 (dose: 400.0 mg/kg/injection, schedule: Q04DX002 (ip), vehicle: saline with Tween-80).

For the compound `O=C(CCc1ccc(C(=O)Nc2ccc(C3=NCCN3)cc2)cc1)Nc1ccc(C2=NCCN2)cc1`, for the setting “dose: 15.0 mg/kg/injection, schedule: Q01DX Z (ip), vehicle: carboxymethylcellulose (CMC)”, the T/C is 143 % of control. For the same compound, the survivor count (dose: 240.0 mg/kg/injection, schedule: Q01DX Z (ip), vehicle: carboxymethylcellulose (CMC)) is on record as 0 of 6.

For `Nc1[nH]c(=S)[nH]c(=S)c1N`, the survivor count runs as follows: (dose: 250.0 mg/kg/injection, schedule: Q01DX Z (ip), vehicle: methylcellulose (MC)) 2 of 6; (dose: 500.0 mg/kg/injection, schedule: Q01DX Z (ip), vehicle: methylcellulose (MC)) 0 of 6.

As for `CCCCCCCCCCCCCCCCOP(=O)(O)OCCCCCCCCCCCCCCCC`, the survivor count by setting is: under setting [3], 6 of 6; under setting [5], 6 of 6.

Take `COc1cc([N+](C)(C)C)nc(OC)n1`: where the note is “dose: 75.0 mg/kg/injection, schedule: Q01DX Z (ip), vehicle: saline”, the survivor count is recorded as 2 of 6.

On to `Clc1nc(I)c(Cl)c(C(Cl)(Cl)Cl)n1`, for which the survivor count (dose: 100.0 mg/kg/injection, schedule: Q01DX001 (ip), vehicle: Klucel (hydroxypropylcellulose) (HPC)) is 2 of 3; the survivor count (dose: 200.0 mg/kg/injection, schedule: Q01DX001 (ip), vehicle: Klucel (hydroxypropylcellulose) (HPC)) is on record as 0 of 3; the survivor count (dose: 400.0 mg/kg/injection, schedule: Q01DX001 (ip), vehicle: Klucel (hydroxypropylcellulose) (HPC)) was 0 of 3.

As to `CC1=C(C)C(=O)c2c(OC(=O)c3ccccc3)ccc(OC(=O)c3ccccc3)c2C1=O`, the survivor count reads like this: under setting [9], 6 of 6; (dose: 400.0 mg/kg/injection, schedule: Q01DX009 (ip), vehicle: saline) 3 of 6.

Consider `C=C(Br)CNC(=O)C(C(F)(F)F)C(F)(F)F`, for which the survivor count is listed as 4 of 6 under setting [10], 0 of 6 under setting [11] and 0 of 6 under setting [12].

For `Cc1c(C)c(CO)c(C)c(C)c1CO`, the survivor count is, setting by setting: under setting [10], 3 of 6; under setting [11], 0 of 6; under setting [12], 0 of 6.

With `CCCCCCOC(CN(C)C)C(Cl)(Cl)Cl` (stereo not drawn), the survivor count under setting [7] is listed as 3 of 6.

In the case of `CN(C)CC(=O)N/N=C\c1ccc([N+](=O)[O-])s1`, the survivor count under setting [13] is 1 of 6.

`ClC(c1ccccc1)C(Cl)c1ccccc1` (stereo not drawn): the survivor count is recorded as 3 of 3 (dose: 50.0 mg/kg/injection, schedule: Q01DX009 (ip), vehicle: saline with Tween-80); 3 of 3 under setting [3]; 1 of 3 under setting [5].

Turning to `CCOc1cc([N+](=O)[O-])c(OCC)cc1C#N`, the survivor count is 2 of 4 (dose: 40.0 mg/kg/injection, schedule: Q01DX001 (ip), vehicle: other); 0 of 4 (dose: 80.0 mg/kg/injection, schedule: Q01DX001 (ip), vehicle: other); 0 of 4 (dose: 100.0 mg/kg/injection, schedule: Q01DX001 (ip), vehicle: other); 0 of 4 (dose: 200.0 mg/kg/injection, schedule: Q01DX001 (ip), vehicle: other); 0 of 4 (dose: 400.0 mg/kg/injection, schedule: Q01DX001 (ip), vehicle: other).

Regarding `CCCCCCCCCCCC[N+](CCO)(CCO)Cc1ccccc1`, the survivor count (dose: 12.5 mg/kg/injection, schedule: Q01DX009 (ip), vehicle: saline) is 1 of 6; the survivor count (dose: 25.0 mg/kg/injection, schedule: Q04DX003 (ip), vehicle: saline) was 2 of 6; the survivor count (dose: 50.0 mg/kg/injection, schedule: Q04DX003 (ip), vehicle: saline) is listed as 1 of 6; the survivor count (dose: 100.0 mg/kg/injection, schedule: Q04DX003 (ip), vehicle: saline) was 0 of 6; the survivor count under setting [9] is 0 of 6; the survivor count under setting [13] is 0 of 6.

Consider `CC(C)(C)C(=O)CC(=O)C(C)(C)C.CC(C)(C)C(=O)CC(=O)C(C)(C)C.CC(C)(C)C(=O)CC(=O)C(C)(C)C.[Pr]`, for which, under setting [7], the survivor count is listed as 6 of 6.

For the compound `CCOCCN1C=C/C(=C/C=C/c2cc[n+](CCOCC)c3ccccc23)c2ccccc21`, the survivor count reads like this: (dose: 1.8 mg/kg/injection, schedule: Q01DX009 (ip), vehicle: saline) 1 of 6; (dose: 2.5 mg/kg/injection, schedule: Q01DX001 (ip), vehicle: saline) 3 of 6; (dose: 2.8 mg/kg/injection, schedule: Q04DX003 (ip), vehicle: saline) 0 of 6; (dose: 4.2 mg/kg/injection, schedule: Q04DX003 (ip), vehicle: saline) 4 of 6; (dose: 5.0 mg/kg/injection, schedule: Q01DX001 (ip), vehicle: saline) 0 of 6.

Take `CC1(C)Oc2ccccc2O1`: the survivor count under setting [6] is given as 0 of 6 and the survivor count under setting [8] is recorded as 0 of 6.

As for `O=C1NC(=S)S/C1=C\c1ccc(F)cc1`, the survivor count is 0 of 3 under setting [4], 0 of 3 under setting [6] and 0 of 3 under setting [8].

For `Clc1nc2ccccc2nc1Cl`, the survivor count was 1 of 3 (dose: 50.0 mg/kg/injection, schedule: Q04DX003 (sc), vehicle: olive oil, sesame oil, peanut oil); 0 of 3 (dose: 100.0 mg/kg/injection, schedule: Q04DX003 (sc), vehicle: olive oil, sesame oil, peanut oil); 0 of 3 (dose: 200.0 mg/kg/injection, schedule: Q04DX003 (sc), vehicle: olive oil, sesame oil, peanut oil); 0 of 3 (dose: 400.0 mg/kg/injection, schedule: Q04DX003 (sc), vehicle: olive oil, sesame oil, peanut oil).

Take `CCN(CC)CCN(C)CC(=O)Nc1cccc(Cl)c1C`: the survivor count is on record as 0 of 6 (dose: 225.0 mg/kg/injection, schedule: Q01DX009 (ip), vehicle: saline) and 0 of 6 under setting [2].

As for `BrC1CCCCCC(Br)C12OCCO2` (stereo not drawn), the survivor count is 0 of 6 under setting [10], 0 of 6 under setting [11] and 0 of 6 under setting [12].
